Patent US10945972B2, “Particulate materials” (Nektar Therapeutics, priority 2002, dated 2021)

Experiment: Emitted dose from Turbospin passive inhaler (Example 11)
Conditions: for Left in Capsules (%): ± is RSD

CC(C)C[C@H]1C(=O)N2CCC[C@H]2[C@]2(O)O[C@](NC(=O)[C@@H]3C=C4c5cccc6[nH]c(Br)c(c56)C[C@H]4N(C)C3)(C(C)C)C(=O)N12 [SEDS bromocriptine, bromocriptine mesylate]
ED drops (flow rate dependence): 8-20% | Left in Capsules (%) (fill weight 4.0 mg, flow rate 28.3 LPM): −1.5 ± −134% | Left in Capsules (%) (fill weight 4.0 mg, flow rate 60 LPM): 0.5 ± 347% | Left in Capsules (%) (fill weight 8.0 mg, flow rate 28.3 LPM): 10.5 ± 118% | Left in Capsules (%) (fill weight 8.0 mg, flow rate 60 LPM): −0.1 ± −2320% | ED at high flow rates (regardless of fill weight): > 80%

Where a name gives a salt, the structure may show the parent alone.
